Columns and labels:
SARS-CoV-2 = format: cell-based
in vitro = details: African green monkey

Q: Which results are given for `COc1ccc2cc(C(C)C(=O)O)ccc2c1` (stereo not drawn) [Naproxen, 6-methoxy-α-methyl-2-naphthaleneacetic acid]?
A: inhibition of SARS-CoV-2 / viral yield (in words) (SARS-CoV-2): did not inhibit SARS-CoV-2; CC50 (in vitro): > 400 µM
